# Experimental data from the supplement of paper PMC12595434, “Development of retinoid nuclear receptor pathway antagonists through targeting aldehyde dehydrogenase 1A3” (iScience, 2025).
# Sequences of proteins named here, by UniProt entry; tags and fusion partners are left off. A change or cut given only in a name is not applied to a line headed by its entry.
# UniProt P09486: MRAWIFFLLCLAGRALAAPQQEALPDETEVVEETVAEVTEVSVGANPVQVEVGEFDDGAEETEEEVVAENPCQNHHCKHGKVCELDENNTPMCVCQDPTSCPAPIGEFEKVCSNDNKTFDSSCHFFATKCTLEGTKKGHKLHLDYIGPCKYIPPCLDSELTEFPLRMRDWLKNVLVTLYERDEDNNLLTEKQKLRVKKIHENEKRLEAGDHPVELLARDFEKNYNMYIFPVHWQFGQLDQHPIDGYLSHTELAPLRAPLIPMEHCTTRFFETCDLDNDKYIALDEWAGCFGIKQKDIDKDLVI
# UniProt P17812: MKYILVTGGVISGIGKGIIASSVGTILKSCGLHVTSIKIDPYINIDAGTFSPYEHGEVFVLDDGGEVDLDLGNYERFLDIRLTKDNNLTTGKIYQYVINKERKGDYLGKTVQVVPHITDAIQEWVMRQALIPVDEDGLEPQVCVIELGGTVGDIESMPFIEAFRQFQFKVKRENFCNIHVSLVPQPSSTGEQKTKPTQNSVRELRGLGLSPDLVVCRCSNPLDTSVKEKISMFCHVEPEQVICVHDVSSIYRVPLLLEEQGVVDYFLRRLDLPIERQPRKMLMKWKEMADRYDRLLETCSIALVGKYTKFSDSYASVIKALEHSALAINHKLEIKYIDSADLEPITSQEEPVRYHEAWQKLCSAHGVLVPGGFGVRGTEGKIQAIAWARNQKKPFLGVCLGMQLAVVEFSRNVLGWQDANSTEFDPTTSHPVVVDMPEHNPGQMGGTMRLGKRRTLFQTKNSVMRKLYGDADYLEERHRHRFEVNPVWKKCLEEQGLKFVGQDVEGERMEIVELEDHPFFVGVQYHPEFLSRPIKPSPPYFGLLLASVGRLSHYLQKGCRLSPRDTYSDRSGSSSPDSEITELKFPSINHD
# UniProt P19419: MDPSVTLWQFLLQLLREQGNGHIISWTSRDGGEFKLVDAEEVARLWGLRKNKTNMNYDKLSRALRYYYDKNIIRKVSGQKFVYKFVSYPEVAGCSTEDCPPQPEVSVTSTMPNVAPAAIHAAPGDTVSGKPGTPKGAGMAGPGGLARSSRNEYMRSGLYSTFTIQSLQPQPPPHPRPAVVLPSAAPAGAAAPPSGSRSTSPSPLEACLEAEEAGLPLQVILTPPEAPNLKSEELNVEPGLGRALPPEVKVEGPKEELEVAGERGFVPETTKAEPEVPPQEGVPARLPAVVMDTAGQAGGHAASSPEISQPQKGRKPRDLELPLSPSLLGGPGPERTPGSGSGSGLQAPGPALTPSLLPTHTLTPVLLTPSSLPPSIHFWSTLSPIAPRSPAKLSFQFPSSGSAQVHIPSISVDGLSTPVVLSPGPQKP
# UniProt P14324: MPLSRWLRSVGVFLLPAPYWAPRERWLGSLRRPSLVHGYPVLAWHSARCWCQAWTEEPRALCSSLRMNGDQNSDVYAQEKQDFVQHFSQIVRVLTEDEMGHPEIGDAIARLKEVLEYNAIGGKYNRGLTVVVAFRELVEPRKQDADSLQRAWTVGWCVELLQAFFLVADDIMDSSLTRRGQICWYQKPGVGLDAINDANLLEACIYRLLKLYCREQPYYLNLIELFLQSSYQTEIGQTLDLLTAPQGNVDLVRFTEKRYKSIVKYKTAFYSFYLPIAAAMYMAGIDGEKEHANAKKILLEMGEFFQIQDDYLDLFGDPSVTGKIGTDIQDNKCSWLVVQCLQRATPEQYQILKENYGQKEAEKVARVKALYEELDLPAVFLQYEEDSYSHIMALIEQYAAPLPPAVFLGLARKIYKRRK
# UniProt P07199: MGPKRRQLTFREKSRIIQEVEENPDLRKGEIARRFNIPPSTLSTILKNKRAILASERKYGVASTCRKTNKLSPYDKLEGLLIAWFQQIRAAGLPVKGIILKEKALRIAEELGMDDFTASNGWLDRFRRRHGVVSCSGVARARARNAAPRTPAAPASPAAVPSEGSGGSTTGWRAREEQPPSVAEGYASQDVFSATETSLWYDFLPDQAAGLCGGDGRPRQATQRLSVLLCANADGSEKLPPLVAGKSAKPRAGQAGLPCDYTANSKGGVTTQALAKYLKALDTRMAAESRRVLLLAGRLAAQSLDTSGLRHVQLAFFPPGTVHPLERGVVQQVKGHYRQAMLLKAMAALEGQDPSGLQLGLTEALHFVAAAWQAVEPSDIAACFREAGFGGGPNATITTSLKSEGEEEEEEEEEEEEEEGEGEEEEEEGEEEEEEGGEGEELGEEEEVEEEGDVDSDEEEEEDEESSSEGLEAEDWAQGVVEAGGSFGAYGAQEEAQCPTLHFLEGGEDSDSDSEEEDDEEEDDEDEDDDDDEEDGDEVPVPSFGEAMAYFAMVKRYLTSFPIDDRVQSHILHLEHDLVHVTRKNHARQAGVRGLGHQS
# UniProt P09972: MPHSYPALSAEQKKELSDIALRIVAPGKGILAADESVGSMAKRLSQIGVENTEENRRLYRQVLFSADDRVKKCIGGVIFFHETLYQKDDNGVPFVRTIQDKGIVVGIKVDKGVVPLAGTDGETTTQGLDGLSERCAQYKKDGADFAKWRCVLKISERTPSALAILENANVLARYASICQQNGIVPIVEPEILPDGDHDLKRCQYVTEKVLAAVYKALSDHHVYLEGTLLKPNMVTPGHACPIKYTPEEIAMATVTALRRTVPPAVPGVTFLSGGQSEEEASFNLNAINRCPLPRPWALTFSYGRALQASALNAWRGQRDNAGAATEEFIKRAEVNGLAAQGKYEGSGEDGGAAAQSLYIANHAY
# UniProt P15408: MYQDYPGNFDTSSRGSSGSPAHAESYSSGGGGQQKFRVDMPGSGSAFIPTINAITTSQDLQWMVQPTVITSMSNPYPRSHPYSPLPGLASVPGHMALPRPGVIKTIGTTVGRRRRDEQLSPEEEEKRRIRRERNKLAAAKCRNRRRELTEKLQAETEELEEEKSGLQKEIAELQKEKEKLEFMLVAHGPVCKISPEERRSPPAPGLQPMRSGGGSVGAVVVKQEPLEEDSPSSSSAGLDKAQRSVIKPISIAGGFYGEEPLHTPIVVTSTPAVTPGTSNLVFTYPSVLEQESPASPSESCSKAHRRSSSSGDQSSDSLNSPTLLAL
# UniProt P07711: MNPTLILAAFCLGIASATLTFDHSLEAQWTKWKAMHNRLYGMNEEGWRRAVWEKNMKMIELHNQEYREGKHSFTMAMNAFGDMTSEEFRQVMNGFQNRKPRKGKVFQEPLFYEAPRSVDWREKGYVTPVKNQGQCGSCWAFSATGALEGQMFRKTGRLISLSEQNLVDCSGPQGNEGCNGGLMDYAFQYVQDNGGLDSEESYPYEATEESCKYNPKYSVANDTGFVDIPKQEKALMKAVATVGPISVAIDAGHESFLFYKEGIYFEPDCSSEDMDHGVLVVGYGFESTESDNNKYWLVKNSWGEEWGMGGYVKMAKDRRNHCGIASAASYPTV
# UniProt P07919: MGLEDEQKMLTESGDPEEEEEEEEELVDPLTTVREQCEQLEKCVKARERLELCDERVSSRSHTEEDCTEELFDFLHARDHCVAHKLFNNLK
# UniProt P07108: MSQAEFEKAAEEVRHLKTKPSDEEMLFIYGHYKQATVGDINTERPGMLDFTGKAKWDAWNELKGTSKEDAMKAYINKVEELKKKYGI
# UniProt P08138: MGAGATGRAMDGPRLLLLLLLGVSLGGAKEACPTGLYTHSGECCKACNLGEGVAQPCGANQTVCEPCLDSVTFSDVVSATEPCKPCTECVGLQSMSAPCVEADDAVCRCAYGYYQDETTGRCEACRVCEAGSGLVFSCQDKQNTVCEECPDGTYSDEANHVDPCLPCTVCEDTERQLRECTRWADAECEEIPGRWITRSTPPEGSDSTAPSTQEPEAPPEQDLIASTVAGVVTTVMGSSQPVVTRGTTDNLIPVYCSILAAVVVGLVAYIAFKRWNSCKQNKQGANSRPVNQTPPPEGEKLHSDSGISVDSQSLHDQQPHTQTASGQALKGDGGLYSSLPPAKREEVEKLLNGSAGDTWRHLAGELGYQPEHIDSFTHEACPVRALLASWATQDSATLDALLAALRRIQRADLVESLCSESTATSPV
# UniProt P10606, whole entry: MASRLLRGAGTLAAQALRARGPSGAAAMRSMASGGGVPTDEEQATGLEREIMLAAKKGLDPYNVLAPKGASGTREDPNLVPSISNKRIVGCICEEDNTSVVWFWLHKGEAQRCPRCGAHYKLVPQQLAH
# UniProt P13716: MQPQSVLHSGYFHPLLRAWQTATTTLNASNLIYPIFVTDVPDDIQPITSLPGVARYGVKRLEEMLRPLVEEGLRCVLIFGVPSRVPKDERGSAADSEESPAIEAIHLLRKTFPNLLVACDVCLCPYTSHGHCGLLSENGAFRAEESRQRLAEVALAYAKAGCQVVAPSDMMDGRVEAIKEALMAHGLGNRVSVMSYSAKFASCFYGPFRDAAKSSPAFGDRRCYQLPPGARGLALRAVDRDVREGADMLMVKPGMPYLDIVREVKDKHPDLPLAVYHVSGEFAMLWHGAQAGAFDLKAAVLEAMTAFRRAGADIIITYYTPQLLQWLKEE
# UniProt P10321, whole entry: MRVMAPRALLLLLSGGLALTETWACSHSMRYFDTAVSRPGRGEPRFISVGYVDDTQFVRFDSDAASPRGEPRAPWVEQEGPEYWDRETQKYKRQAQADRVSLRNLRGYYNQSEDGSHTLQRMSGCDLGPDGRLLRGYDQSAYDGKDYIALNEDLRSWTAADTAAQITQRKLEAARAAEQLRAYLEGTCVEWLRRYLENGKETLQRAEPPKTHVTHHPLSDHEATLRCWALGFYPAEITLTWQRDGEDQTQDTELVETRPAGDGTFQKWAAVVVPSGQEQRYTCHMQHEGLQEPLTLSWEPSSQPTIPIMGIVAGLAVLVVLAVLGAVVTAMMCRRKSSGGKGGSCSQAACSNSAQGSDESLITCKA
# UniProt P0C870: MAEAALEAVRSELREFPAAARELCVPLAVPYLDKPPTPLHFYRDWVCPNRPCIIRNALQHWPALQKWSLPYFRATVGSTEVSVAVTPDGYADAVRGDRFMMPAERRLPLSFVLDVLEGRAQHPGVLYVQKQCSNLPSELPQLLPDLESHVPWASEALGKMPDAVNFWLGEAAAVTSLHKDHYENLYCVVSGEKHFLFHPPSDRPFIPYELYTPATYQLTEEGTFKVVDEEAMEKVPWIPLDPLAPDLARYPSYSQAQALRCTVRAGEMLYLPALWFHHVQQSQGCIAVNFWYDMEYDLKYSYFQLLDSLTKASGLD
# UniProt P10746: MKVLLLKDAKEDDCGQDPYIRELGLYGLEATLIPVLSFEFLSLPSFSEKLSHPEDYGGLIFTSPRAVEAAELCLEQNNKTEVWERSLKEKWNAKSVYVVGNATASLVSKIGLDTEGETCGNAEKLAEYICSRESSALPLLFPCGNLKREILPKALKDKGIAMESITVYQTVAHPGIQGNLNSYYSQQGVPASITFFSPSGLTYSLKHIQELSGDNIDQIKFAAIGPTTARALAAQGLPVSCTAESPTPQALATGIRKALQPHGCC
# UniProt P08651, whole entry: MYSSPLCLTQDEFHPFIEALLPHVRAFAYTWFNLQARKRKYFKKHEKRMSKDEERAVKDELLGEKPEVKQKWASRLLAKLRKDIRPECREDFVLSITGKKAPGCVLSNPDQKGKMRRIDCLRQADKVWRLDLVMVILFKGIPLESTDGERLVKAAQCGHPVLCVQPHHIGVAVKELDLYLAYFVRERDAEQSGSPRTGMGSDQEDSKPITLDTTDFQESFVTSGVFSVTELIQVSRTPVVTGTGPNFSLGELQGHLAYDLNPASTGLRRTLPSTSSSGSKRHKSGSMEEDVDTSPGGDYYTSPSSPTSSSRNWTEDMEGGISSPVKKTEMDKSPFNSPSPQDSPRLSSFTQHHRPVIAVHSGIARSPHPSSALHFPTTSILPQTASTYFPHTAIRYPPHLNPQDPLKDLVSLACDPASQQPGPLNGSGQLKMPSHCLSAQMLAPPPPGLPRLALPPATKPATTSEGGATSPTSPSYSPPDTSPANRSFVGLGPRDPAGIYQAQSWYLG
# UniProt P17535: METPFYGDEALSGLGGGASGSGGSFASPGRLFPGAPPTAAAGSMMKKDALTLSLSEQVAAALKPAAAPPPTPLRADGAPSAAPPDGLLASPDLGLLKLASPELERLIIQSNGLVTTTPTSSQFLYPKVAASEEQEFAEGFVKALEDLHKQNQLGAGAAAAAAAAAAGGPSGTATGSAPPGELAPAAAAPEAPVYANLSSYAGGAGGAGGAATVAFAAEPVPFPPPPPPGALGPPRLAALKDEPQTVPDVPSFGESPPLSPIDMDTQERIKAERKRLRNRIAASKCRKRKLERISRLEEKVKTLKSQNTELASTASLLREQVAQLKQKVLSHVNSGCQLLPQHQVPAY
# UniProt P12235: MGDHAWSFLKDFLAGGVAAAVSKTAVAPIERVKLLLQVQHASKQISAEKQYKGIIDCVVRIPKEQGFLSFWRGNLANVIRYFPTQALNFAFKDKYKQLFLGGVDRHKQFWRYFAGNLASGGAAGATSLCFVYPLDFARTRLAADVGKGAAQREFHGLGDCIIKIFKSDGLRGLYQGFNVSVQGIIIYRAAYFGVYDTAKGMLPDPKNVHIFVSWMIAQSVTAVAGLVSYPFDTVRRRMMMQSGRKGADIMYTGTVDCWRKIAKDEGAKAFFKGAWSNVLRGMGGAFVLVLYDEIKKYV
# Some of the results follow. The data scatter; read single values as rough.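 Tm was set to 64 °C where no melting was found, and many curves are irregular.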
# Compound: CCc1cnccc1C(=O)Nc1cc2c(cc1F)NC(=O)CC2
# Assay: melting temperature shift (DMSO Tm minus MBE1-treated Tm) in cellular thermal proteome profiling; higher = less thermal stabilization by MBE1 (negative = stabilized by MBE1)
# Settings: A375; MBE1 concentration: 100 nM
row,Target,melting temperature shift
1,ABCB1 (UniProt P08183),-0.837 °C
2,UniProt P09486,-0.421 °C
3,CTPS1 (UniProt P17812),-0.714 °C
4,ANXA6 (UniProt P08133),0.8 °C
5,UniProt P19419,-0.784 °C
6,RPSA (UniProt P08865),-0.598 °C
7,UniProt P07737,-0.416 °C
8,UniProt P16220,2.07 °C
9,FDPS (UniProt P14324),0.891 °C
10,CKMT1A (UniProt P12532),-0.227 °C
11,UniProt P07199,-1.23 °C
12,RALB (UniProt P11234),-1.78 °C
13,ALDOC (UniProt P09972),-1.27 °C
14,UniProt P0C7P4,-1.05 °C
15,FOSL2 (UniProt P15408),-1.08 °C
16,BTF3 (UniProt P20290),-1.75 °C
17,DLAT (UniProt P10515),-1.11 °C
18,CTSL (UniProt P07711),-1.64 °C

# Same assay, conditions: A375; MBE1 concentration: 1 uM
row,Target,melting temperature shift
1,ABCB1 (UniProt P08183),-0.678 °C
2,UQCRH (UniProt P07919),-5.44 °C
3,UniProt P09486,-1.03 °C
4,DBI (UniProt P07108),-3.55 °C
5,UniProt P08138,-3.14 °C
6,CTPS1 (UniProt P17812),1.35 °C
7,ANXA6 (UniProt P08133),0.263 °C
8,CYBA (UniProt P13498),0.402 °C
9,SLC25A6 (UniProt P12236),-0.287 °C
10,RPSA (UniProt P08865),1.62 °C
11,COX5B (UniProt P10606),-3.12 °C
12,ALAD (UniProt P13716),-3.33 °C
13,Q95604 (UniProt P10321),-3.34 °C
14,UniProt P07737,-0.295 °C
15,UniProt P0C870,1.35 °C
16,UniProt P16220,-2.06 °C
17,UROS (UniProt P10746),-0.202 °C
18,PVR (UniProt P15151),0 °C

row,Target,melting temperature shift
1,FDPS (UniProt P14324),1.11 °C
2,GUSB (UniProt P08236),-3.64 °C
3,CALM1 (UniProt P0DP23),-4.64 °C
4,CKMT1A (UniProt P12532),1.62 °C
5,UniProt P07199,-0.974 °C
6,NFIC (UniProt P08651),-3.7 °C
7,UniProt P17535,-3.96 °C
8,RALB (UniProt P11234),-0.307 °C
9,ALDOC (UniProt P09972),-1.18 °C
10,UniProt P0C7P4,-0.782 °C
11,CEBPB (UniProt P17676),-0.78 °C
12,CD44 (UniProt P16070),0 °C
13,FOSL2 (UniProt P15408),-5.56 °C
14,BTF3 (UniProt P20290),-5.7 °C
15,DLAT (UniProt P10515),0.863 °C
16,UniProt P19022,-3.03 °C
17,CTSL (UniProt P07711),-1.04 °C
18,SLC25A4 (UniProt P12235),1.95 °C
